Three molecules from article PMC9723633 can be followed below.

Protein sequences, listed by entry. Tags and fused reporters are not part of them.
UniProt P61406: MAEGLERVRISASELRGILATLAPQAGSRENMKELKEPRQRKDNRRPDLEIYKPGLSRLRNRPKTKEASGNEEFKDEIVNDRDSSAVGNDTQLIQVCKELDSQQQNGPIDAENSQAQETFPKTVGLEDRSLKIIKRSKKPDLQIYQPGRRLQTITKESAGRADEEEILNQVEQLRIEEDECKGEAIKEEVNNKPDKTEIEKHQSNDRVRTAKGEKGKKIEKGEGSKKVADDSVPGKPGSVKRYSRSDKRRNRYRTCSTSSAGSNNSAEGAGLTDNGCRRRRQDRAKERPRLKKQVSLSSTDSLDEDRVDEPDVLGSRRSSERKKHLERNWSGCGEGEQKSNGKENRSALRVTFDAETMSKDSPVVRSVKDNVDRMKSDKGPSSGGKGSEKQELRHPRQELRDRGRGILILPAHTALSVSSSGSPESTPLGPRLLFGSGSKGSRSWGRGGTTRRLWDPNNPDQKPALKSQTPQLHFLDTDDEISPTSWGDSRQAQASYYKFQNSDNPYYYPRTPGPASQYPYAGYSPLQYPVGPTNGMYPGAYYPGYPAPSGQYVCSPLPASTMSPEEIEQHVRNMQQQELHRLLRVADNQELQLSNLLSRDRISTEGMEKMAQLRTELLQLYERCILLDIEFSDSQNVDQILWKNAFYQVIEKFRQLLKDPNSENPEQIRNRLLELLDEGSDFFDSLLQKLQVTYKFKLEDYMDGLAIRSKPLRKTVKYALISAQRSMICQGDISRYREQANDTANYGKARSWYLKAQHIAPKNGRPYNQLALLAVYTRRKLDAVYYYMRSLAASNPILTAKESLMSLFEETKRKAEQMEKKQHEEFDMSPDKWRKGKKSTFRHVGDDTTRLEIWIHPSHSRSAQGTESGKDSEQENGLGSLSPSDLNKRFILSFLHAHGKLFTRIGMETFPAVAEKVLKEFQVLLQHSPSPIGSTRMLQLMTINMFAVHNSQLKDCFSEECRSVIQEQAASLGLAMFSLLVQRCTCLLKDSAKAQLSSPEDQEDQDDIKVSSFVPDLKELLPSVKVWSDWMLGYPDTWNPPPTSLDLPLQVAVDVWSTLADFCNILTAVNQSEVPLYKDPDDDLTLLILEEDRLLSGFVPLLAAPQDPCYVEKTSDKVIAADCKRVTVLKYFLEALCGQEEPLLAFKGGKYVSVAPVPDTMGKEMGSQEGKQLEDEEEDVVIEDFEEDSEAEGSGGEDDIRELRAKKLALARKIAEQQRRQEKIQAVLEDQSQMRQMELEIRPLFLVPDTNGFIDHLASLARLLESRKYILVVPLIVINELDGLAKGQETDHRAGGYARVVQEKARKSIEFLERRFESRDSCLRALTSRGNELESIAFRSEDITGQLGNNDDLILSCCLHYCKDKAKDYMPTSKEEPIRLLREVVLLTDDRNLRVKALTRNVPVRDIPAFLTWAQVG
UniProt Q9JMB7: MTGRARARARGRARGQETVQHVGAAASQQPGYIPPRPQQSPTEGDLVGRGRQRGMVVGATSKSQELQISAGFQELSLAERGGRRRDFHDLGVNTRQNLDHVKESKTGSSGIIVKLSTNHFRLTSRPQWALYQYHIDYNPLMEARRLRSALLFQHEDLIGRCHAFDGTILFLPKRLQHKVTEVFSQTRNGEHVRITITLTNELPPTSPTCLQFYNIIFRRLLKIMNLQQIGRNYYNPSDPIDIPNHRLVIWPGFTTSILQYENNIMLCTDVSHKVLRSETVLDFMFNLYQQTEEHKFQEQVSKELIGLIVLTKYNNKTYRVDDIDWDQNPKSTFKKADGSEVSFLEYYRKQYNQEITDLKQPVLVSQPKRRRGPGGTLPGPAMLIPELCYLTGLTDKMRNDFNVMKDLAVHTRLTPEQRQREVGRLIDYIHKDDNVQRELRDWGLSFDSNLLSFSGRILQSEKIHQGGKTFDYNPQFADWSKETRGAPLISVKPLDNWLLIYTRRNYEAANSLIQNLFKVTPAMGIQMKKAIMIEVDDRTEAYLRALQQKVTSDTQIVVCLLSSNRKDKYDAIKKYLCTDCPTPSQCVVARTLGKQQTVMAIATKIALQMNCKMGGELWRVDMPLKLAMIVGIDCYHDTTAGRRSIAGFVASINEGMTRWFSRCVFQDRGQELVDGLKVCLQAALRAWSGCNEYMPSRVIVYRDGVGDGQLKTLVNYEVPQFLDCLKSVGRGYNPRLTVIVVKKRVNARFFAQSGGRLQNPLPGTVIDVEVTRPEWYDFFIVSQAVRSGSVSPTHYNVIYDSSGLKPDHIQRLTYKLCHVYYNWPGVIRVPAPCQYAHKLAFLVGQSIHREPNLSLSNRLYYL

Results are given in words; binding and its absence hold for the method and conditions named. Binding seen in cells or lysates may run through a third protein. Some results given as binding are weak or reduced against the parent protein; the word gives no strength.

Assay [1] deals with T1, DEAD box polypeptide 4 (DDX4) (mouse (endogenous in testis)) (UniProt Q61496).
T1 sequence: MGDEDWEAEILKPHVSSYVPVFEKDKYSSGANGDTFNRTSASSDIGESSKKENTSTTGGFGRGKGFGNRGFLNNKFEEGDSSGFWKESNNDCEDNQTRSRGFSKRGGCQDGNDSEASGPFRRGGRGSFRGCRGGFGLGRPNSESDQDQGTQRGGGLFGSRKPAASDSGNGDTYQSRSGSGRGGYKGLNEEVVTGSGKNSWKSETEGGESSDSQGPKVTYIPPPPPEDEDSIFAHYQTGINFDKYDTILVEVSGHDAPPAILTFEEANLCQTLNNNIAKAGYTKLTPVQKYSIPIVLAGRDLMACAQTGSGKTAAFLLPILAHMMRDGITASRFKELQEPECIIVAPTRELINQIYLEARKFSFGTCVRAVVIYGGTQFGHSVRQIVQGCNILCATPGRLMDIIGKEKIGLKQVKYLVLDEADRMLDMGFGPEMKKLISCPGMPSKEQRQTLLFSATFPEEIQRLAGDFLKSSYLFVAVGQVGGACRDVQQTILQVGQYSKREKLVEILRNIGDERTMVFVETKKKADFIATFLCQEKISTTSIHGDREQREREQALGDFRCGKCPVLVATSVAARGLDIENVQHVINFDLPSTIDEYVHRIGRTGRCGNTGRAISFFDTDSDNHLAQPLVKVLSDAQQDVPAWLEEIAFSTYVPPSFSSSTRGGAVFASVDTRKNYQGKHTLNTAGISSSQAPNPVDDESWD
Nature of the assay: co-IP; chromatoid bodies isolated by anti-DDX4 IP (Dynabead Protein G, overnight at 4°C) from the CB-enriched pellet fraction of mouse germ cells fixed in 0.1% PFA and sonicated in RIPA buffer; western blotting; rabbit IgG as control; control or Smg6-cKO mice. For orientation: A western blot detects proteins with antibodies after separation by electrophoresis.

Assay [2] addresses SMG6 (mouse (endogenous in testis)) (UniProt P61406). Nature of the assay: co-IP; adult mouse testis lysate in isotonic nondenaturing lysis buffer (150 mM NaCl, 5 mM EDTA, 50 mM Tris-HCl pH 8.0, 1% Triton X-100); antibody overnight at 4°C, Dynabead Protein G; with or without RNase treatment; western blotting with anti-SMG6 and anti-PIWIL1; rabbit IgG as negative control.

For the molecule SMG6 (from UniProt P61406 1-1418), the binding entry in assay [1] is listed as “binds”.
Consider PIWIL1 (from UniProt Q9JMB7 1-862), for which the binding result in assay [2] is recorded as “binds”.

B1: SMG7 (protein, UniProt Q5RJH6 1-1138)
chain: MSLQSAQYLRQAEVLKAEMTDSKLGPAEVWTSRQALQDLYQKMLVTDLEYALDKKVEQDLWNHAFKNQITTLQGQAKNRANPNRSEVQANLSLFLEAASGFYTQLLQELCTVFNVDLPCRVKSSQLGIISNKQTHSSTIVKPQSSSCSYICQHCLVHLGDIARYRNQTSQAESYYRHAAQLVPSNGQPYNQLAILASSKGDHLTTIFYYCRSIAVKFPFPAASTNLQKALSKALESRDELKTKWGVSDFIKAFIKFHGHVYLSKSLEKLSPLREKLEEQFKRLLFQKAFNSQQLVHVTVINLFQLHHLRDFSNETEQHSYSQDEQLCWTQLLALFMSFLGILCKCPLQNDSQESNNAYPLPAVKVSMDWLRLRPRVFQEAVVDERQYIWPWLISLLNSFHPREDDLSNTNATPLPEEFELQGFLALRPSFRNLDFSKGHQGITGDKEGQQRRIRQQRLISIGKWIADNQPRLIQCENEVGKLLFITEIPELILEDPSEAKENLILQETSVVESLATDGSPGLKSVLSTGRNPSNSCDSGEKPVVTFKENIKPREVNQGRSFPPKEVKSQTELRKTPVSEARKTPVTQTPSQTSNSQFIPIHHPGAFPPLPSRPGFPPPTYVIPPPVAFSMGSGYTFPAGVSVPGTFLQSTAHSPAGNQVQAGKQSHIPYSQQRPSGPGPMNQGPQQSQPPSQPPLTSLPAQPTAQSTSQLQVQALAQQQQSPTKVIPALGKSPPHHSGFQQYQQADASKQLWNPPQVQSPLGKIMPVKQSYYLQTQDPIKLFEPSLQPPVIQQQPLEKKMKPFPMEPYNHNPSEVKVPEFYWDSSYSMADNRAVMAQQPNMDRRSKRSPGVFRPEQDPVPRMPFEDPKSSPLLPPDLLKSLAALEEEEELIFSNPPDLYPALLGPLASLPGRSLFKSLLEKPSELMSHSSSFLSLTGFSVNQERYPNSSMFNEVYGKNLTTSSKAELNPSVASQETSLYSLFEGTPWSPSLPASSDHSTPASQSPHSSNPSSLPSSPPTHNHNSAPFSNFGPIGTPDNRDRRPADRWKTDKPAMGGFGVDYLSATSSSESSWHQASTPSGTWTGHGPSMEDSSAVLMESLKSIWSSSMMHPGPSALEQLLMQQKQKQQRGQGAMNPPH
For B1, the binding result in assay [1] is “no binding”.
